Data taken from publication PMC4714548.
Results are given in words; binding and its absence hold for the method and conditions named. Binding seen in cells or lysates may run through a third protein. For some of these results: Binding calls can cover weak binding; strength is not graded here.

Key:
[1] = target: T1, canonical transient receptor potential (TRPC) 1 (rabbit (endogenous in portal vein VSMCs)) (UniProt Q9TUN9); test: proximity ligation; Duolink in situ PLA on fixed, permeabilised VSMCs pretreated with 50 µM BAPTA-AM for 10 min (also with scrambled or PLCβ1 shRNA); anti-TRPC1, anti-Gαq and anti-PLCβ1 antibodies at 1:200
T1 sequence: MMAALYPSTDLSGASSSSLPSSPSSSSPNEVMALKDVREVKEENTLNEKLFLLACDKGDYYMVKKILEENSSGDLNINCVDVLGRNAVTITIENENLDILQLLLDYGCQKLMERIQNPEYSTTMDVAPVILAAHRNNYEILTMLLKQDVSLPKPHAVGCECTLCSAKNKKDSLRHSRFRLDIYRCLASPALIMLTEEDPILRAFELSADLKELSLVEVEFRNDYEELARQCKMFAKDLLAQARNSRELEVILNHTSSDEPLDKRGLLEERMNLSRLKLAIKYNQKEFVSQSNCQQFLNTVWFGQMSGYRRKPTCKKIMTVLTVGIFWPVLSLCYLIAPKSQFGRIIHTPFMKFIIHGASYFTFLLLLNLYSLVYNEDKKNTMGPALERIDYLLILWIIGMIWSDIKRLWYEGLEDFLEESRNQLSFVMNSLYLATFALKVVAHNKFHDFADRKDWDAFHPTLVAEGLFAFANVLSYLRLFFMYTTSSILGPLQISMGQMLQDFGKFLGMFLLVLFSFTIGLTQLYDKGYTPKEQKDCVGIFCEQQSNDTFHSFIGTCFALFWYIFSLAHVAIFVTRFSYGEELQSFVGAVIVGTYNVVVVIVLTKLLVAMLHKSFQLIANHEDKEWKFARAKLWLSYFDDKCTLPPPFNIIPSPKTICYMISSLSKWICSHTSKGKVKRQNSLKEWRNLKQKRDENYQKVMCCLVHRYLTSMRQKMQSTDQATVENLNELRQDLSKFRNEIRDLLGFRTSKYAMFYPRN

[2] = target: T1, canonical transient receptor potential (TRPC) 1 (rabbit (endogenous in portal vein VSMCs)); test: proximity ligation; Duolink in situ PLA on fixed, permeabilised resting VSMCs; anti-TRPC1, anti-Gαq and anti-PLCβ1 antibodies at 1:200
[3] = target: T1, canonical transient receptor potential (TRPC) 1 (rabbit (endogenous in portal vein VSMCs)); test: condition: only unstimulated cells (no store depletion); co-IP; unstimulated primary cultured rabbit portal vein VSMCs; RIPA lysates; IP with anti-TRPC1 antibodies, Western blot with anti-Gαq or anti-PLCβ1
[4] = target: T1, canonical transient receptor potential (TRPC) 1 (rabbit (endogenous in portal vein VSMCs)); test: condition: only unstimulated vessel segments (no store depletion); co-IP; Supplemental Fig. S2C: unstimulated freshly isolated vessel segments; RIPA lysates
[5] = target: T1, canonical transient receptor potential (TRPC) 1 (rabbit (endogenous in portal vein VSMCs)); test: co-IP; Supplemental Fig. S2C: freshly isolated vessel segments pretreated with 10 µM CPA; RIPA lysates; the PLCγ1 control was done with BAPTA-AM and with CPA
[6] = target: T1, canonical transient receptor potential (TRPC) 1 (rabbit (endogenous in portal vein VSMCs)); test: co-IP; primary cultured rabbit portal vein VSMCs pretreated with 50 µM BAPTA-AM for 10 min (also with scrambled or PLCβ1 shRNA); RIPA lysates; IP with anti-TRPC1 antibodies, Western blot with anti-Gαq or anti-PLCβ1

| Substance | binding [1] | binding [2] | binding [3] | binding [4] | binding [5] | binding [6] |
| --- | --- | --- | --- | --- | --- | --- |
| PLCβ1 (rabbit (endogenous in portal vein VSMCs)) (enzyme) | binds | no binding (only resting cells (no store depletion)) | no binding | no binding | binds | binds |
| PLCγ1 (rabbit (endogenous in portal vein VSMCs)) (enzyme) | – | – | – | – | no binding | – |
